Measurements reported in PubChem BioAssay AID504764 (Drosophila RNAi Screening Center, 2011)
Purpose: 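Genome-wide screen for regulators of Notch-driven gene expression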 (primary screen). Cell system: Drosophila Kc167 cells. Reagent: long dsRNA against Drosophila genes. Timing: about 5 days (4 days dsRNA, then 24 h after transfection). Conditions: transfection of constitutively active membrane-tethered Notch lacking the extracellular domain, read 24 h later. Detection: 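Firefly luciferase from an E(spl)m3 reporter with active Notch, plus control-promoter and uninduced reporter wells for normalisation; unnormalised counts, duplicate wells a and b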. Scale: induced reporter light, run 1, well a and induced reporter light, run 1, well b: higher = more light from the Notch target reporter with active Notch; control promoter light, run 1, well a and control promoter light, run 1, well b: higher = more light from the viral control promoter (cell number, transfection, viability); uninduced reporter light, run 1, well a: higher = more light from the Notch target reporter without active Notch. Rule for the call: 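Hit if the duplicate-averaged log2 ratio of induced to control-promoter light gives a plate-wise z beyond ±2, or induced to uninduced beyond ±1.8; weak-control or discordant-duplicate wells dropped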. Calls: active = modifier hit (raised or lowered Notch signal); inactive = not a hit.
The deposit covers about 22,000 reagents; this is a random part of those that have a named target and a result. Over the whole deposit, 403 (1.9%) got an active call. 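Unnormalised raw counts per well; ratio z-scores behind the hit calls and whether each hit raises or lowers signal are not deposited.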 Reagents against one gene are numbered here. No sequences are given here. The record does not give: the amount of reagent.

CG30373 (GeneID 246573) — induced reporter light, run 1, well a: 87745; induced reporter light, run 1, well b: 80965; control promoter light, run 1, well a: 1.03e5; control promoter light, run 1, well b: 98710; uninduced reporter light, run 1, well a: 4285; activity call: inactive
CG31109 (GeneID 43001) — induced reporter light, run 1, well a: 1.49e5; induced reporter light, run 1, well b: 1.83e5; control promoter light, run 1, well a: 2.31e5; control promoter light, run 1, well b: 1.93e5; uninduced reporter light, run 1, well a: 14370; activity call: inactive
MsrA (GeneID 39675) — induced reporter light, run 1, well a: 2.40e5; induced reporter light, run 1, well b: 2.07e5; control promoter light, run 1, well a: 2.86e5; control promoter light, run 1, well b: 3.01e5; uninduced reporter light, run 1, well a: 12125; activity call: inactive
CG11374 (GeneID 33163) — induced reporter light, run 1, well a: 1.38e5; induced reporter light, run 1, well b: 1.39e5; control promoter light, run 1, well a: 1.09e5; control promoter light, run 1, well b: 86440; uninduced reporter light, run 1, well a: 9960; activity call: inactive
Gle1 (GeneID 35849) — induced reporter light, run 1, well a: 74580; induced reporter light, run 1, well b: 83500; control promoter light, run 1, well a: 84210; control promoter light, run 1, well b: 69665; uninduced reporter light, run 1, well a: 7240; activity call: inactive
Snap25 (GeneID 3355084) #1 — induced reporter light, run 1, well a: 85235; induced reporter light, run 1, well b: 85770; control promoter light, run 1, well a: 93725; control promoter light, run 1, well b: 1.10e5; uninduced reporter light, run 1, well a: 8865; activity call: inactive
Snap25 (GeneID 3355084) #2 — induced reporter light, run 1, well a: 90010; induced reporter light, run 1, well b: 67575; control promoter light, run 1, well a: 90070; control promoter light, run 1, well b: 81760; uninduced reporter light, run 1, well a: 5770; activity call: inactive
CG8119 (GeneID 32500) — induced reporter light, run 1, well a: 83715; induced reporter light, run 1, well b: 59205; control promoter light, run 1, well a: 57305; control promoter light, run 1, well b: 51200; uninduced reporter light, run 1, well a: 9910; activity call: inactive
CG17217 (GeneID 34644) — induced reporter light, run 1, well a: 1.25e5; induced reporter light, run 1, well b: 1.29e5; control promoter light, run 1, well a: 1.36e5; control promoter light, run 1, well b: 1.34e5; uninduced reporter light, run 1, well a: 10015; activity call: inactive
CG3587 (GeneID 31160) — induced reporter light, run 1, well a: 2.27e5; induced reporter light, run 1, well b: 2.14e5; control promoter light, run 1, well a: 2.87e5; control promoter light, run 1, well b: 2.65e5; uninduced reporter light, run 1, well a: 18750; activity call: inactive
CG42788 (GeneID 41817) #1 — induced reporter light, run 1, well a: 2.49e5; induced reporter light, run 1, well b: 2.24e5; control promoter light, run 1, well a: 2.29e5; control promoter light, run 1, well b: 2.17e5; uninduced reporter light, run 1, well a: 17395; activity call: inactive
CG42788 (GeneID 41817) #2 — induced reporter light, run 1, well a: 2.00e5; induced reporter light, run 1, well b: 2.17e5; control promoter light, run 1, well a: 2.16e5; control promoter light, run 1, well b: 2.33e5; uninduced reporter light, run 1, well a: 18985; activity call: inactive
CG42788 (GeneID 41817) #3 — induced reporter light, run 1, well a: 1.95e5; induced reporter light, run 1, well b: 2.37e5; control promoter light, run 1, well a: 2.12e5; control promoter light, run 1, well b: 2.27e5; uninduced reporter light, run 1, well a: 17628; activity call: inactive

2 of these entries in another layout.
{"gene knocked down":"CG17217 (GeneID 34644)","reagent":1,"induced reporter light, run 1, well a":1.25e5,"induced reporter light, run 1, well b":1.29e5,"control promoter light, run 1, well a":1.36e5,"control promoter light, run 1, well b":1.34e5,"uninduced reporter light, run 1, well a":10015,"activity call":"inactive"}
{"gene knocked down":"CG3587 (GeneID 31160)","reagent":1,"induced reporter light, run 1, well a":2.27e5,"induced reporter light, run 1, well b":2.14e5,"control promoter light, run 1, well a":2.87e5,"control promoter light, run 1, well b":2.65e5,"uninduced reporter light, run 1, well a":18750,"activity call":"inactive"}
